The record followed here is PubChem BioAssay AID662 (National Center for Advancing Translational Sciences (NCATS), 2007).

The structures appear in SMILES notation. Some of the results follow. Further columns of the screen follow, without active or inactive calls. Most of these compounds were active or inconclusive in the main read-out, so they are no random draw. Words in brackets tell the shape of the fitted curve; partial curves, single points and poor fits give uncertain potencies.

Broadly, the AC50 is the midpoint of the concentration-response curve, whichever way the signal moves.

The test can be described thus: Cell signaling CRE-BLA (Fsk stim). As to conditions: CHO CRE-bla reporter (cAMP response element driving beta-lactamase), forskolin EC10, beta-lactamase ratio; measured here: 460 nm blue channel. The method, boiled down:
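Modulation of forskolin signalling: compounds in titration series added with EC10 NKH 477 to CHO cells carrying a CRE-driven beta-lactamase reporter, 3 h, 37C. CCF4 FRET ratio (460/530 nm, ex 405 nm) gives %activity and AC50.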
For `CN1CCc2nc(SCCOc3ccccc3)c(C#N)cc2C1`, the AC50 was 7.94 µM [rising, partial curve].
To `CN(C)c1ccc(C2CC(=O)NC3=C2C(=O)CC(C)(C)C3)cc1` (stereo not drawn) belongs 1 µM [falling, full curve, poor fit]; to `O[C@@H]1[C@@H]2c3cc4c(cc3CN3CCC(=C[C@@H]1O)[C@H]23)OCO4`, 0.794 µM [rising, full curve]; to `Nc1c(C(=O)NCCN2CCOCC2)c2nc3ccccc3nc2n1-c1cccc(F)c1`, 10 µM [rising, partial curve].
With `CCOC(=O)CC(=O)Nc1cc(Cl)ccc1O`, the AC50 is 7.94 µM [falling, partial curve].
Next, `CC1=C(C(=O)OCC2CCCO2)C(c2ccccc2OC(C)C)C2=C(CC(c3ccco3)CC2=O)N1` (stereo not drawn): 12.6 µM [rising, single point]; `O=C(CN1CCN(Cc2ccccc2Cl)C1=O)N1CCCCCC1`: 12.6 µM [rising, single point]; `CCC(=O)c1ccc(N2CCCCCC2)c(F)c1`: 15.8 µM [rising, partial curve].
Regarding `CCOC(=O)C1CCCN(c2ncnc3c2cnn3-c2cccc(C)c2)C1` (stereo not drawn), the AC50 was 20 µM [rising, single point].
Next, `Cc1nnc(SCCn2c(N3CCCCCC3)nc3c2c(=O)[nH]c(=O)n3C)s1`: 12.6 µM [rising, single point].
As for `Cn1c(=O)[nH]c(=O)c2c1nc(N(CCO)Cc1ccccc1)n2CCCc1ccccc1`, the half-maximal activity concentration (AC50) is 12.6 µM [rising, partial curve].
On to `CC1CCc2sc3ncnc(N4CCOCC4)c3c2C1` (stereo not drawn), for which the concentration at half-maximal activity (AC50) is 25.1 µM [rising, single point].
Consider `CNc1nc(C)c(C#N)c(-c2ccccc2)c1C(C)=O`, for which the AC50 is 10 µM [rising, partial curve].
`CN1C(=O)c2cccc3c(S(=O)(=O)Nc4ccccn4)ccc1c23`: the AC50 is 10 µM [rising, single point].
With `CCOC(=O)C1CCN(S(=O)(=O)c2cccc(-c3csc(C)n3)c2)CC1`, the concentration at half-maximal activity (AC50) was 25.1 µM [rising, single point].
In the case of `COc1ccc(Nc2nc3ccccc3c(=O)s2)c(OC)c1`, the concentration at half-maximal activity (AC50) was 25.1 µM [rising, single point].
Next, `CC(=O)c1ccc(Oc2cc(C)nc(-n3nc(C)cc3C)n2)cc1`: 2.51 µM [rising, partial curve]; `CCOc1cc(N2CCOCC2)c(OCC)cc1NC(=O)COc1cccc2cccnc12`: 3.16 µM [falling, full curve]; `Cc1nc2ccccc2c2oc(C(=O)NCCN3CCN(C)CC3)cc12`: 15.8 µM [rising, single point].
Take `CC(C)(C)n1ncc2c(=O)n(CC(=O)Nc3ccc4c(c3)OCCO4)cnc21`: the AC50 is 25.1 µM [rising, single point].
Take `CCOC(=O)c1cc2oc(C(c3nnnn3C3CCCCC3)N3CCOCC3)cc2[nH]1` (stereo not drawn): the AC50 was 10 µM [rising, partial curve].
Next, `CCN(C(=O)CSc1nc2nc(C)cc(C)n2n1)c1ccccc1`: 6.31 µM [rising, partial curve]; `Cc1ccc(Cn2nnc3c(=O)n(CC(=O)OCc4ccccc4)cnc32)cc1`: 10 µM [rising, single point].
Take `COCCOC(=O)C1=C(C)NC(=O)N(C(C)=O)C1c1ccc(Cl)cc1` (stereo not drawn): the AC50 was 0.0501 µM [falling, partial curve, poor fit].
To `CC(C)Cn1cc(C(=O)N2CCOCC2)c2c3ccccc3n(C)c2c1=O` belongs 0.316 µM [falling, partial curve].
On to `CCC(Sc1nc2n[nH]c(C)c2c(=N)n1-c1cccc(Cl)c1)C(=O)NCCOC` (stereo not drawn), for which the AC50 was 10 µM [rising, partial curve].
To `CN1CCN(c2ccccc2NC(=O)c2cccc(OCc3ccccc3)c2)CC1` belongs 1 µM [rising, full curve]; to `Cc1c(NC(=O)C(C)OC(=O)C(NC(=O)c2ccco2)C(C)C)c(=O)n(-c2ccccc2)n1C` (stereo not drawn), 0.398 µM [falling, full curve]; to `Cc1ccc(S(=O)(=O)NCCSc2nnnn2-c2cc(C)ccc2C)cc1`, 5.01 µM [rising, partial curve].
Next, `COc1ccc(Nc2cc(C)nc3nc(C)nn23)cc1Cl`: 10 µM [rising, partial curve].
Next, `COc1ccc(-n2c(=O)cnc3cnc(N4CCOCC4)nc32)cc1`: 10 µM [rising, single point]; `CCc1nc2nc(C)cc(Nc3cccc(C(F)(F)F)c3)n2n1`: 10 µM [rising, partial curve].
With `N=c1c(C(=O)NCc2ccccc2)cc2c(=O)n3ccccc3nc2n1CCCN1CCOCC1`, the AC50 is 12.6 µM [rising, partial curve].
Next, `CC1CN(S(=O)(=O)c2cccs2)CC(C)O1` (stereo not drawn): 0.00398 µM [falling, full curve, poor fit].
`COCCn1c(SCc2nc3ccccc3s2)nc2ccccc21`: the half-maximal activity concentration (AC50) is 12.6 µM [rising, single point].
To `CC1c2[nH]c3ccccc3c2CCN1C(=O)Nc1ccccc1` (stereo not drawn) belongs 20 µM [falling, single point]; to `COc1ccc(OC)c(Nc2cc(C)nc3nc(C)nn23)c1`, 10 µM [rising, partial curve]; to `COC(=O)c1cc2c(=O)n3ccccc3nc2n(C)c1=N`, 10 µM [rising, partial curve].
Next, `Cc1noc(C)c1-c1nccc(Nc2ccc(F)cc2)n1`: 3.98 µM [rising, partial curve]; `CCCc1cc(N2CCCC(C(=O)Nc3cc(Cl)ccc3OC)C2)n2ncnc2n1` (stereo not drawn): 12.6 µM [rising, partial curve].
Regarding `O=C(Nc1ccccc1C(F)(F)F)c1ccc(F)c(S(=O)(=O)N2CCOCC2)c1`, the AC50 is 0.501 µM [falling, full curve, poor fit].
`COc1ccc(-c2nnc(-c3cccnc3)o2)cc1OC`: the AC50 was 10 µM [rising, partial curve].
As for `COc1ccc(-c2cc(C(F)(F)F)n3nc(C(=O)N4CCOCC4)nc3n2)cc1`, the half-maximal activity concentration (AC50) is 12.6 µM [rising, partial curve].
Regarding `CCOc1ccccc1N1C(=O)CC(Nc2ccc(N3CCOCC3)cc2)C1=O` (stereo not drawn), the AC50 is 0.631 µM [rising, full curve, poor fit].
Regarding `Cc1[nH]c2ccccc2c1C(c1ccccn1)N1CCC(C(N)=O)CC1` (stereo not drawn), the AC50 is 7.94 µM [falling, partial curve].
Turning to `CCSc1sccc1C1C(C#N)=C(N)N(c2cccnc2)C2=C1C(=O)CC(C)(C)C2` (stereo not drawn), the half-maximal activity concentration (AC50) is 12.6 µM [rising, single point].
For `CCC1(CC)C(=O)NC(=O)NC1=NCCc1ccc(O)cc1`, the half-maximal activity concentration (AC50) is 0.0251 µM [falling, full curve, poor fit].
In the case of `O=C(CCS(=O)(=O)c1cccc2nonc12)N1CCCc2ccccc21`, the concentration at half-maximal activity (AC50) is 20 µM [falling, partial curve, poor fit].
To `COc1ccccc1CNc1ncncc1-c1cccc(C#N)c1` belongs 5.01 µM [rising, full curve]; to `CCc1nc(N2CCCCC2C)c2oc3ccccc3c2n1` (stereo not drawn), 3.98 µM [rising, partial curve]; to `Cc1cc(Oc2ccccc2)nc(-c2ccccc2O)n1`, 3.16 µM [rising, full curve].
Turning to `CCOC(=O)C1CCN(C(=O)CCNC(=O)Cn2ccc3ccccc3c2=O)CC1`, the concentration at half-maximal activity (AC50) was 0.0501 µM [rising, full curve, poor fit].
To `COCCSc1nnc(NC(=O)Cc2cccs2)s1` belongs 0.1 µM [falling, partial curve, poor fit]; to `CCOC(=O)C1(C)NC(c2ccc(N(C)C)cc2)C2C(=O)N(CC)C(=O)C21` (stereo not drawn), 0.501 µM [falling, full curve, poor fit].
Regarding `COc1ccccc1NC(=O)N1CCN(c2cc(-c3ccccc3)nc3ncnn23)CC1`, the concentration at half-maximal activity (AC50) is 0.126 µM [falling, full curve, poor fit].
As for `COCCn1c(=O)c(-c2cn(C)c3ccccc23)nc2cncnc21`, the AC50 was 10 µM [rising, partial curve].
Next, `O=S(=O)(CCOc1ccccc1)c1nc2ccccc2[nH]1`: 6.31 µM [falling, partial curve]; `O=C(Oc1cccc2ccccc12)c1ccco1`: 0.00316 µM [falling, full curve, poor fit].
In the case of `O=C(O)CSc1sc(=S)sc1SCC(=O)O`, the half-maximal activity concentration (AC50) was 0.251 µM [falling, full curve].
Next, `Cc1cc2ccccc2n1CCNC(=O)C(C)(C)C`: 10 µM [rising, partial curve].
To `O=C(c1csnn1)N1CCC2(CCCN(Cc3cc(C(F)(F)F)cc(C(F)(F)F)c3)C2)CC1` belongs 3.98 µM [rising, single point].
Take `COc1cccc(-c2cc(C(=O)NCCc3ccccc3)no2)c1`: the AC50 was 0.0794 µM [falling, full curve, poor fit].
To `CCNC(=O)N1c2ccc(OCC)cc2C(C)=CC1(C)C` belongs 25.1 µM [rising, single point]; to `COCCSc1nnc(NC(=O)CSCc2ccccc2)s1`, 15.8 µM [rising, single point].
Next, `Cc1ccc(C2NC(=O)c3ccccc3N2)s1` (stereo not drawn): 10 µM [rising, partial curve]; `CCc1c(C#N)c(SCc2c(C)noc2C)nc2c1C(=O)CC(C)(C)C2`: 1 µM [rising, partial curve]; `O=C(Cn1nc(C(F)(F)F)c2c1CCCC2)Nc1ccc2c(c1)OCO2`: 0.01 µM [falling, full curve, poor fit].
To `COc1ccc(-n2c(C)c(C(C)=O)c(C(C)=O)c2C)cc1OC` belongs 10 µM [rising, partial curve].
